Results taken from paper doi:10.1101/2023.07.25.550466.
These are yes or no findings as the source states them, for the method shown. In cells and extracts the contact can be indirect. Some results given as binding are weak or reduced against the parent protein; the word gives no strength.

The chains behind the UniProt entries cited, without tags or fusion partners.
UniProt Q91ZW3: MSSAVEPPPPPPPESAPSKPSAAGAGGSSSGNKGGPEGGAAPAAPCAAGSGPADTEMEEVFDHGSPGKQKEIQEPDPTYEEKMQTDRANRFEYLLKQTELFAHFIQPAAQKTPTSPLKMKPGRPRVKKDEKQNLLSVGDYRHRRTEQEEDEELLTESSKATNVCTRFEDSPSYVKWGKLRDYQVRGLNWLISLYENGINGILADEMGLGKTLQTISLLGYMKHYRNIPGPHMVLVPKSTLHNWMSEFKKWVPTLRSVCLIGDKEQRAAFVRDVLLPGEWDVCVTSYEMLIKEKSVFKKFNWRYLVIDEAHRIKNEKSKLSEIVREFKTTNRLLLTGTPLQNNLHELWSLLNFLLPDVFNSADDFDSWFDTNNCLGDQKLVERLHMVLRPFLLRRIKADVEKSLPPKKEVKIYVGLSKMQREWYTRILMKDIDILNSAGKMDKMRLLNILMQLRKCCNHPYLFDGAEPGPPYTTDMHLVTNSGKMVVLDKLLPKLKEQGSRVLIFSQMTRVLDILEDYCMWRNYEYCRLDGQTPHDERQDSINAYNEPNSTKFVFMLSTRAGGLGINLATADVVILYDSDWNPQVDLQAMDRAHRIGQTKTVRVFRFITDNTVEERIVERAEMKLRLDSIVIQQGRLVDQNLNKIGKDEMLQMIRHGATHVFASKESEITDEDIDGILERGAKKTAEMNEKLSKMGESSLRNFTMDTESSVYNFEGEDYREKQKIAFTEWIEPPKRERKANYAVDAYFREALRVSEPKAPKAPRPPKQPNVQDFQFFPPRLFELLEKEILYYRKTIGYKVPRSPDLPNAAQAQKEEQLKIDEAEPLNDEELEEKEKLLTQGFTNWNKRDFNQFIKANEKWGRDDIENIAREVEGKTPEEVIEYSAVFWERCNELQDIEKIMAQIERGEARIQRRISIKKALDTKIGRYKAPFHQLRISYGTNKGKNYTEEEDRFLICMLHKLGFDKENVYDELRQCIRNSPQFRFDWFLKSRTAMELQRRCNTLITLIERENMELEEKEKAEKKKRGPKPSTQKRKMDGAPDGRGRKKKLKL
UniProt O88379: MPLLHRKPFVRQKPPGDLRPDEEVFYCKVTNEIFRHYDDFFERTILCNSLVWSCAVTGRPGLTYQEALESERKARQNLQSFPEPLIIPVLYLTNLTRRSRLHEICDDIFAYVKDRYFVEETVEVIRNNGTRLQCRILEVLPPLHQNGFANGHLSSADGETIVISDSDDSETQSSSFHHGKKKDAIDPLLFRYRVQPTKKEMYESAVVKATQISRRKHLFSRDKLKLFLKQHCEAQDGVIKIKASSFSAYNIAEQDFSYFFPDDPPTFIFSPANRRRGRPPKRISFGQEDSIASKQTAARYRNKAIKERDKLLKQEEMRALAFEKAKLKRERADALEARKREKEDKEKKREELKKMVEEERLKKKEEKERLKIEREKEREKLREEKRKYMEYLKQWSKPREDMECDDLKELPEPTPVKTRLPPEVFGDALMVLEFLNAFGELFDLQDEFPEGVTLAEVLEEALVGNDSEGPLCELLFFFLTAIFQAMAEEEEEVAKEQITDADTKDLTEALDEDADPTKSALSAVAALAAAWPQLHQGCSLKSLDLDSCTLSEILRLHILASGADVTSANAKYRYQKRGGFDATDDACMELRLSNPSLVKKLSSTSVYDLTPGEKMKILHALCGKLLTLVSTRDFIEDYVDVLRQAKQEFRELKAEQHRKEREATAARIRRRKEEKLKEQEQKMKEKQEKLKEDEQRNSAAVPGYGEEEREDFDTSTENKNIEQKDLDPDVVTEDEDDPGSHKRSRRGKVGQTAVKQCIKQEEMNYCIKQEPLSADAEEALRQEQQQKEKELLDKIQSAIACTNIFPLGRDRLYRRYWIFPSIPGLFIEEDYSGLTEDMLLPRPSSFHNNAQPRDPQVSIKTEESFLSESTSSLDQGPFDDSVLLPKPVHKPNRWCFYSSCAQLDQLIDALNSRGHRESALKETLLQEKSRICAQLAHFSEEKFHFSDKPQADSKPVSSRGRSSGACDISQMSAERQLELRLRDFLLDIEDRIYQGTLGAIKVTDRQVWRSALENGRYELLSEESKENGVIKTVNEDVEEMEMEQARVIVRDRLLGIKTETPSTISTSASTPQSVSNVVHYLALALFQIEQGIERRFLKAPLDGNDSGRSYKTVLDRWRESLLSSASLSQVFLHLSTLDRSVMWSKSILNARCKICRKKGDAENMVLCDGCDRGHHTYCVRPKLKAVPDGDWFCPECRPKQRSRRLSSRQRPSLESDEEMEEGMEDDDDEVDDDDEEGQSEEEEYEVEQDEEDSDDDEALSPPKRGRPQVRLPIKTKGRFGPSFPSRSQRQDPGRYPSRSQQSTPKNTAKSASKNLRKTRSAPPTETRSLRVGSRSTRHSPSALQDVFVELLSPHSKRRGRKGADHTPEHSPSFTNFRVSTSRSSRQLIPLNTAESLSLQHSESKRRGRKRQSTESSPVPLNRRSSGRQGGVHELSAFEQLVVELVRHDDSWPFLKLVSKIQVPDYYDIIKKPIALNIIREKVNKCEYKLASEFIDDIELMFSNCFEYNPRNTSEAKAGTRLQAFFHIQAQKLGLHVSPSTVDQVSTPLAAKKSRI
UniProt E9Q2Z1: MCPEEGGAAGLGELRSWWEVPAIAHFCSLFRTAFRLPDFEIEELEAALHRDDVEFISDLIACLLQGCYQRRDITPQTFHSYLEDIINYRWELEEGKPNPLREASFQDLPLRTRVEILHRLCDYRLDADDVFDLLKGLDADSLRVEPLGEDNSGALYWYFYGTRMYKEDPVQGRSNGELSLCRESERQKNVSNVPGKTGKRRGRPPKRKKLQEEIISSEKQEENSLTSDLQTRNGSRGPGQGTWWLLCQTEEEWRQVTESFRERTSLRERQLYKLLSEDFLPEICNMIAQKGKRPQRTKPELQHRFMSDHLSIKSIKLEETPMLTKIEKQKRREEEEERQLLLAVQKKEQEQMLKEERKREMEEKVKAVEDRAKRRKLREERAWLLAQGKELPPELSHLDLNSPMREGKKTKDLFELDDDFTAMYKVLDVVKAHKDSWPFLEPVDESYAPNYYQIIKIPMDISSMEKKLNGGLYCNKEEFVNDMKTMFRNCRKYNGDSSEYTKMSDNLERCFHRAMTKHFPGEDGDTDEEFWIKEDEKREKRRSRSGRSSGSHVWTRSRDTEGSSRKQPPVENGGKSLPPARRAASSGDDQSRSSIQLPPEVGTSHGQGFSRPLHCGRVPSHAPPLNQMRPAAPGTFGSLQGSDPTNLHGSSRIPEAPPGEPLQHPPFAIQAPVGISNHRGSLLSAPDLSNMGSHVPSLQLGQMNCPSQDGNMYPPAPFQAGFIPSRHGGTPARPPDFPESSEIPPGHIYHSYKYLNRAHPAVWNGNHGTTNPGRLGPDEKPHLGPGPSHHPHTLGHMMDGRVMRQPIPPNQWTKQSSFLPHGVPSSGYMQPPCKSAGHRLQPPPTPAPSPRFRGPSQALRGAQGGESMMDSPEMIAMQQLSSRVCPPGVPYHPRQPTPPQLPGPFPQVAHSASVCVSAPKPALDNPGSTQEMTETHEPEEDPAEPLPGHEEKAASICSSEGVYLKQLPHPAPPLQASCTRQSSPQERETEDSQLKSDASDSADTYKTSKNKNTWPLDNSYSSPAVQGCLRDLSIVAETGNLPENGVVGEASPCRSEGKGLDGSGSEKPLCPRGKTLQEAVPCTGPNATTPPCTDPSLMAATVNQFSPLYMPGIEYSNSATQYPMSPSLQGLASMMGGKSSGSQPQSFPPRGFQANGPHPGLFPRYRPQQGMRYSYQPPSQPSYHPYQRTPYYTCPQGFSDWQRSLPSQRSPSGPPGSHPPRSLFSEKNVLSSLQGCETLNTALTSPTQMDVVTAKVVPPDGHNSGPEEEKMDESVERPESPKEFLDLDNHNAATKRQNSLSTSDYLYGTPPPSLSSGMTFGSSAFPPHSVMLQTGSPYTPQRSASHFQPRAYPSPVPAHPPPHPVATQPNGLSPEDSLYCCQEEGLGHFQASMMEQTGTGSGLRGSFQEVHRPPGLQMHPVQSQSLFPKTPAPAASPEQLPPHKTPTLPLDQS
UniProt Q91YE5: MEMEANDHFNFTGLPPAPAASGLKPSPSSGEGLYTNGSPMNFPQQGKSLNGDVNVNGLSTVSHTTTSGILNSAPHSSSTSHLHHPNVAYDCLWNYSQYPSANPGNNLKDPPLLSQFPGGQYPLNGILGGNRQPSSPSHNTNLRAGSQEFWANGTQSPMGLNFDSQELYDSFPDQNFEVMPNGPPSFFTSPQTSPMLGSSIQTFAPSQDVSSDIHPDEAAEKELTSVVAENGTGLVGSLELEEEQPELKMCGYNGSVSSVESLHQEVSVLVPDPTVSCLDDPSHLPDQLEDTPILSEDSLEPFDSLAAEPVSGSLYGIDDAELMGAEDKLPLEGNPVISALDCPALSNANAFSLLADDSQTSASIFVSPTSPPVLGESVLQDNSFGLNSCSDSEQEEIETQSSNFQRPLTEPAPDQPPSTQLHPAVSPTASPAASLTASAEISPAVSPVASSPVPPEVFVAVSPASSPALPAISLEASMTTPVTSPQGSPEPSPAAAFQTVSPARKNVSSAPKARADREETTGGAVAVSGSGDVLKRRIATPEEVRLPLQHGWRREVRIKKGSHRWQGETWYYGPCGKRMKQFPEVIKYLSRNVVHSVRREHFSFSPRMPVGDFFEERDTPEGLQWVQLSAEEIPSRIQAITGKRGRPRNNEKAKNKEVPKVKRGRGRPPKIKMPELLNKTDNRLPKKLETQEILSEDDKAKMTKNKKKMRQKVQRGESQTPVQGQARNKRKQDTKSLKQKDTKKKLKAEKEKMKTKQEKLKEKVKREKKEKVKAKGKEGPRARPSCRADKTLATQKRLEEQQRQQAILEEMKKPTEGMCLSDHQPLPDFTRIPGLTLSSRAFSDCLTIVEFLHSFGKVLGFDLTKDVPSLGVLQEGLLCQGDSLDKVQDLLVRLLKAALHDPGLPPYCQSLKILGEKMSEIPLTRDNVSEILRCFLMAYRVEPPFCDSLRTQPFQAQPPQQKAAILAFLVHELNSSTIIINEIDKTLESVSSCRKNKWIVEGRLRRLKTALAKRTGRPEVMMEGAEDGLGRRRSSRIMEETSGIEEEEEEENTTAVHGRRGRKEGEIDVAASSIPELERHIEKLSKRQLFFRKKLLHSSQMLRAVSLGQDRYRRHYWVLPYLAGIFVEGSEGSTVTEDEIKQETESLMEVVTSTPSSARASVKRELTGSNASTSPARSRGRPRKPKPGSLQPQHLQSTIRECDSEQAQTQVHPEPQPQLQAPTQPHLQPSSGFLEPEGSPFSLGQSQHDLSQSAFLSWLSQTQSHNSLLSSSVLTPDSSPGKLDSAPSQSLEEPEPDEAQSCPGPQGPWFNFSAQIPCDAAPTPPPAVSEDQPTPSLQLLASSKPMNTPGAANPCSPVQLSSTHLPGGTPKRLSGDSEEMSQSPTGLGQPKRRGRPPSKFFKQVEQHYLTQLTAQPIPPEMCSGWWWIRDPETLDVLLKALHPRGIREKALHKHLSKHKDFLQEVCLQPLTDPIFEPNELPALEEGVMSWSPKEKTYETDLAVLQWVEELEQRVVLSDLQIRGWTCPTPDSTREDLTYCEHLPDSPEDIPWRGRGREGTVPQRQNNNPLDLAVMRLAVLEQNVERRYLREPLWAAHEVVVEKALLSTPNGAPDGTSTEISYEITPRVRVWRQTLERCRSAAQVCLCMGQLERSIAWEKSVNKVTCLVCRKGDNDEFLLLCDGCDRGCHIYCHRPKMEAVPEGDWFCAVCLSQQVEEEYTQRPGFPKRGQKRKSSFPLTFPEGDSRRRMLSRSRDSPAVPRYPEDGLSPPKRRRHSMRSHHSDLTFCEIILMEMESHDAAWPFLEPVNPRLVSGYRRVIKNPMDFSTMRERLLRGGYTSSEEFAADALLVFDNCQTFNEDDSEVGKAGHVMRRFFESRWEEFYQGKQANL

B1: WSTF (Baz1b) (protein, UniProt Q9Z277 1-1479)
chain: MAPLLGRKPFPLVKPLPGEEPLFTIPHTQEAFRTREEYEARLERYSERIWTCKSTGSSQLTHKEAWEEEQEVAELLKEEFPNWYEKLVLEMVHHNTASLEKLVDSAWLEIMTKYAVGEECDFEVGKEKMLKVKIVKIHPLEKVDEEAVEKKSDGACDSPSSDKENSSQMAQDLQKKETVVKEDEGRRESINDRARRSPRKLPTSLKKGERKWAPPKFLPHKYDVKLQNEDKIISNVPADSLIRTERPPNKEILRYFIRHNALRAGTGENAPWVVEDELVKKYSLPSKFSDFLLDPYKYMTLNPSTKRRNTGSPDRKPSKKPKRDSSSLSSPLNPKLWCHVHLEKSLNGPPLKVKNSKNSKSPEEHLEGVMKIMSPNNNKLHSFHIPKKGPAAKKPGKHSDKPLKAKGRGKGILNGQKSTGNSKSPSKCVKTPKTKMKQMTLLDMAKGTQKMTRTPRSSGGVPRSSGKPHKHLPPAALHLIAYYKENKDKEDKKSALSCVISKTARLLSNEDRARLPEELRALVQKRYELLEHKKRWASMSEEQRKEYLKKKRQELKERLREKAKERREREMLERLEKQKRFEDQELGGRNLPAFRLVDTPEGLPNTLFGDVALVVEFLSCYSGLLLPDAQYPITAVSLMEALSADKGGFLYLNRVLVILLQTLLQDEIAEDYGELGMKLSEIPLTLHSVSELVRLCLRRCDVQEDSEGSETDDNKDSTPFEDNEVQDEFLEKLETSEFFELTSEEKLRILTALCHRILMTYSVQDHMETRQQVSAELWKERLAVLKEENDKKRAEKQKRKEMEARNKENGKEENVLGKVDRKKEIVKIEQQVEVEADDMISAVKSRRLLSMQAKRKREIQERETKVRLEREAEEERMRKHKAAAEKAFQEGIAKAKLVLRRTPIGTDRNHNRYWLFSNEVPGLFIEKGWVHNSIDYRFKHHRKDHSNLPDDDYCPRSKKANLGKNASVNAHHGPALEAVETTVPKQGQNLWFLCDSQKELDELLSCLHPQGIRESQLKERLEKRYQEITHSIYLARKPNLGLKSCDGNQELLNFLRSDLIEVATRLQKGGLGYMEGTSEFEARVISLEKLKDFGECVIALQASVIKKFLQGFMAPKQKKRKLQSEDSTKSEEVDEEKKMVEEAKVASALEKWKTAIREAQTFSRMHVLLGMLDACIKWDMSAENARCKVCRKKGEDDKLILCDECNKAFHLFCLRPALYEVPDGEWQCPACQPPTARRNSRGRNYTEESTSEGSEGDESGEEEEEEEEEEEEEEDYEVAGLRLRPRKTIRGKQSVIPAARPGRPPGKKSHPARRSRPKDDPEVDDLVLQTKRISRRQSLELQKCEDILHKLVKYRFSWPFREPVTRDEAEDYYDVIEHPMDFQTIQNKCSCGNYRSVQEFLTDMKQVFANAELYNCRGSHVLSCMEKTEQCLLALLQKHLPGHPYVRRKRRKFPDRLADDEGDSDSESVGQSRGRRQKK

Each molecule was assayed against SNF2H (Smarca5) (mouse (endogenous in mESCs)) (UniProt Q91ZW3) (assay: co-IP).

binding, binds:
ACF1 (Baz1a) (from UniProt O88379 1-1555)
CECR2 (from UniProt E9Q2Z1 1-1453)
BAZ2A/TIP5 (from UniProt Q91YE5 1-1889)
B1
